The data set is described as follows: Single cell proteomics LC-MS/MS analysis of 0.2 ng HeLa digests prepared with DDM or FA. Set-up: species or system human. To be noted: 0.2 ng HeLa digest, 0.015% DDM. As to the method: HeLa cell lysate protein digests were diluted to 0.05 ng/μL by 0.1% FA or 0.015% DDM solution, and 0.2 ng (4 μL) was injected onto the LC-MS to simulate single cell sample analysis. Sixteen synthetic peptides from a mAb's constant region and CDR were diluted and mixed to a final concentration of 10 fmol/μL by 0.1% FA, 0.015% DDM solution or complex cell digest matrix. In reconstitution experiments, 20 μL of 500 fmol/μL BSA digests and 200 ng/μL HeLa digests were aliquoted into vials and dried in vacuo. Dried samples were reconstituted by 0.1% FA or 0.015% DDM solution. One picomole BSA digests and 100 ng HeLa digests were loaded onto the column for nanoLC-MS/MS analysis.
Single cell samples and reconstituted samples were analyzed using an UltiMate 3000 RSLCnano system (Thermo Scientific) coupled to an Orbitrap Exploris 480 mass spectrometer (Thermo Scientific). […]
Database searches for protein identification were performed using SEQUEST and Mascot embedded into Proteome Discoverer 2.2 (Thermo Fisher Scientific). […] Peptide mapping and BSA sample data were analyzed using Protein Metrics Byonic™ (version 3.11.3) by searching the raw files against the mAb or BSA protein sequence. All peptide quantification was executed using Skyline Daily software (University of Washington, WA) by extracting the MS' peak area of all detected charge states. […]

For `CCCCCCCCCCCCO[C@@H]1O[C@H](CO)[C@@H](O[C@H]2O[C@H](CO)[C@@H](O)[C@H](O)[C@H]2O)[C@H](O)[C@H]1O` [DDM, N-dodecyl-β-D-maltoside], the “number of identified protein groups” value (triplicate (control 0.1% FA: 168)) was 368. The “number of identified unique peptides” value (triplicate (control 0.1% FA: 363)) was determined as 964.

The values are drawn from patent US12699101B2, “Maximizing hydrophobic peptide recovery using a mass spectrometry compatible surfactant” (Regeneron Pharmaceuticals, Inc., priority 2022, dated 2026).
